# The whole screen tested about 400,000 compounds, of which about 13,000 (3.2%) were called active. The inconclusive results got no clear call from the source; some entries with a clear call stand among them for comparison. Calls come from the whole dose curve; as a rule, active = well fitted cell-killing curve with a large enough effect; inconclusive = small, poorly fitted or top-dose-only effect, or effect the other way; inactive = flat fitted curve, though single readings scatter. Potencies of inconclusive entries are doubtful fits and often do not repeat.
# Experiment: qHTS assay for MDR1-selective chemotherapeutics: Primary screen using the drug-selected MDR subline cells KB-V1; note: nearly all actives have a fitted effect of over 60% in size
# Conditions: KB-V1 MDR cells viability, CellTiter-Glo, 72 h; activity change, negative = cytotoxicity: at 46.1 µM (top of the series)
# How it was run: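 qHTS viability screen in drug-selected KB-V1 MDR cells: 72 h compound treatment at 37 degrees C, ATP luminescence end point.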
# % is set by controls: 0 for no effect and ±100 for the full control effect; potency is the fitted concentration of half-maximal effect.
Compound,Potency,"activity change, negative = cytotoxicity"
CCOc1ccccc1CNC(=O)C1CCCN(c2nnc(C)c3c(C)n(-c4ccccc4)nc23)C1 (configuration not stated),"inconclusive: 29.1 µM [cytotoxic, single point]",
Cc1ccc(-c2nc3ccccc3c(=O)n2Cc2ccccc2)cc1,active: 13 µM,
COc1ccc(OC)c(S(=O)(=O)n2cnc3ccccc32)c1,active: 23.1 µM,
COc1ccc(C(=O)N2CCN(c3nc4cc(C)ccc4cc3C#N)CC2)c(OC)c1,"inconclusive: 20.6 µM [cytotoxic, single point]",
COCc1ccc(C(=O)N2CCCC(C(=O)c3ccc(SC)cc3)C2)o1 (configuration not stated),"inconclusive: 20.6 µM [cytotoxic, single point]",
COc1ccc(Cl)cc1C=CC=NNS(=O)(=O)c1ccc(C)cc1,"inconclusive: 18.4 µM [cytotoxic, single point]",
CCn1nc(NS(=O)(=O)c2ccccc2)c2cc3cccc(C)c3nc21,"inconclusive: 23.1 µM [cytotoxic, single point]",
Cc1ccc(C(NC(=O)C2CCN(CCOc3ccccc3)CC2)c2ccccn2)cc1 (configuration not stated),inactive,
COc1cc(NC(=O)N2CCc3c(sc4c3CCCC4)C2c2ccccc2)cc(OC)c1OC (configuration not stated),"inconclusive: 20.6 µM [cytotoxic, single point]",
CCOc1ccc(/C=N/NC(=O)c2cc3c(OC)cc(OC)cc3[nH]2)cc1OC,inactive,
Cc1c(N(C(=O)CNC(=O)c2ccccc2)C2(C(=O)NC3CCCCC3)CCCCC2)c(=O)n(-c2ccccc2)n1C,inactive,
CCN(Cc1ccccc1)S(=O)(=O)c1cn(C)cn1,"inconclusive: 20.6 µM [rising, single point]",
CCOC(=O)C1(CC2CCCCO2)CCN(S(=O)(=O)c2ccsc2)CC1 (configuration not stated),inactive,
O=C(CN1C(=O)COc2ccc(S(=O)(=O)NC3CCCC3)cc21)NCc1ccc(Cl)cc1,inactive,
Cc1ccc(C(=O)c2sc3c(c2N)c(=O)[nH]c(=O)n3CCc2ccccc2)cc1,"inconclusive: 9.2 µM [cytotoxic, partial curve, poor fit]",
COc1cccc(/C=C/C(=O)NCc2cn3cc(Cl)ccc3n2)c1,"inconclusive: 25.9 µM [cytotoxic, partial curve, poor fit]",
O=C1CC[C@@H](CN(Cc2ccccn2)Cc2nc(Cc3ccccc3)no2)N1,"inconclusive: 20.6 µM [rising, single point]",
c1cncc(-c2nc(NCc3cccs3)c3ccccc3n2)c1,"inconclusive: 20.6 µM [cytotoxic, partial curve, poor fit]",
O=C(CC1CCCCC1)Nc1nc2ccccc2s1,inactive,
CC1CC(=O)NN=C1c1ccc(NCCO)c([N+](=O)[O-])c1 (configuration not stated),active: 0.13 µM,
COc1ccc(OC)c2sc(N3CCN(C(=O)c4ccco4)CC3)nc12,inactive,
O=C(O)c1ccc(/C=N\Nc2ccc(S(=O)(=O)N3CCOCC3)cc2[N+](=O)[O-])cc1,inactive,
COc1cc2[nH]c(=O)n(CCCC(=O)NCCc3ccccc3)c(=O)c2cc1OC,"inconclusive: 23.1 µM [rising, partial curve, poor fit]",
O=C(c1ccc([N+](=O)[O-])cc1)N1CCC(Cc2ccccc2)CC1,"inconclusive: 16.4 µM [cytotoxic, single point]",

# Record cards, as listed above.
# COc1cc2[nH]c(=O)n(CCCC(=O)NCCc3ccccc3)c(=O)c2cc1OC reads Potency: inconclusive: 23.1 µM [rising, partial curve, poor fit]
# CC1CC(=O)NN=C1c1ccc(NCCO)c([N+](=O)[O-])c1 (configuration not stated) reads Potency: active: 0.13 µM
# COc1ccc(Cl)cc1C=CC=NNS(=O)(=O)c1ccc(C)cc1 reads Potency: inconclusive: 18.4 µM [cytotoxic, single point]
# O=C(CN1C(=O)COc2ccc(S(=O)(=O)NC3CCCC3)cc21)NCc1ccc(Cl)cc1 reads Potency: inactive

# Continued.

Compound,Potency,"activity change, negative = cytotoxicity"
O=C(Nc1ccncc1)c1cccc2ccccc12,"inconclusive: 29.1 µM [cytotoxic, single point]",
CCN(CC)c1ccc(C(=O)N/N=C(\C)c2cccnc2)cc1,"inconclusive: 16.4 µM [cytotoxic, single point]",
COc1ccc(C(CNC(=O)C2COc3ccccc3O2)N2CCCC2)cc1 (configuration not stated),inactive,
CCOC(=O)C1(CCc2ccccc2)CCN(C(=O)C2CCOCC2)CC1,"inconclusive: 14.6 µM [cytotoxic, partial curve, poor fit]",
COc1ccc(CN(C)CC(=O)Nc2ccccc2C(F)(F)F)cc1,"inconclusive: 20.6 µM [cytotoxic, single point]",
CCOC(=O)Cc1nn(Cc2nc(-c3ccc(C#N)cc3)cs2)c(=O)c2ccccc12,"inconclusive: 7.31 µM [cytotoxic, partial curve]",
CCN1CCC(N(Cc2ccc3c(c2)OCO3)C(=O)Nc2cc(F)ccc2F)CC1,inactive,
COc1ccc2nccc(/C=C/c3ccnc4ccc(OC)cc34)c2c1,inactive,
O=[N+]([O-])c1ccc2nc(-c3ccc(Cl)cc3)n(OCc3ccccc3)c2c1,inactive,
CCN(CC)C(=O)c1c(NC(=O)c2cccc(C)c2)sc2c1CCC(C)C2 (configuration not stated),"inconclusive: 5.17 µM [cytotoxic, partial curve]",
Cc1ccc(NNC(=O)c2ccno2)cc1C,inactive,
N#CC1=C(N2CCCCC2)c2cc3c(n2C1=O)CCCC3,"inconclusive: 13 µM [cytotoxic, partial curve]",
OC(CN1CCOCC1)Cn1c2c(c3ccccc31)CCCC2 (configuration not stated),"inconclusive: 0.0517 µM [cytotoxic, full curve]",
CCOC(=O)[C@]12CCCC=C1N(Cc1ccc(Cl)cc1Cl)C(=O)[C@H](CC(=O)NCCCOC)C2,inactive,
Cc1ccc(S(=O)(=O)C[C@@H]2OC[C@H](CO)N2S(=O)(=O)c2ccc(C)cc2)cc1,"inconclusive: 18.4 µM [cytotoxic, partial curve, poor fit]",
COc1cc(CN2C[C@@H](CO)O[C@@H](n3cnc4c(Nc5ccccc5)ncnc43)C2)cc(OC)c1OC,inactive,
C=CCN1C(=NC(=O)COc2ccc(Cl)cc2)SC2CS(=O)(=O)CC21 (configuration not stated),,inconclusive: 0.764%
Cc1ccc(S(=O)(=O)NC(CC(C)C)C(=O)Nc2ccncc2)cc1 (configuration not stated),"inconclusive: 20.6 µM [cytotoxic, single point]",
NS(=O)(=O)c1ccc(CCNC(=O)C(=O)NCC2OCCN2S(=O)(=O)c2cccs2)cc1 (configuration not stated),"inconclusive: 16.4 µM [rising, partial curve, poor fit]",
CCN1C(=O)CSC1=Nc1ccc(C(=O)OC)cc1,inactive,
CC(C)(C)NC(=O)C1CCN(c2nc3ccccc3nc2C(F)(F)F)CC1,inactive,
O=C(COC(=O)Cn1nnc2ccccc21)NC1CCCC1,inactive,
CC(=O)c1c(C)[nH]c(C(=O)Nc2cccc(C(F)(F)F)c2)c1C,active: 13 µM,
COc1ccc(/C=C(/NC(=O)c2ccccc2)C(=O)NCC2CCCO2)cc1 (configuration not stated),"inconclusive: 29.1 µM [rising, single point]",

Compound,Potency,"activity change, negative = cytotoxicity"
Cc1nnc(SCC(=O)Nc2sccc2C#N)s1,inactive,
Cc1cc(NC(=O)CN2CCCC(C)C2)n(-c2nc3ccccc3s2)n1 (configuration not stated),"inconclusive: 23.1 µM [cytotoxic, single point]",
COc1ccc(C(=O)NCCn2cc(SCc3c(F)cccc3Cl)c3ccccc32)cc1,"inconclusive: 14.6 µM [cytotoxic, partial curve]",
CC(C(=O)NC1C(=O)N2C(C(=O)O)=C(CSc3nnnn3C)CSC12)n1cc(Cl)cn1 (configuration not stated),"inconclusive: 29.1 µM [rising, single point]",
CCCCn1nnnc1C1(C)CCC(=O)N1Cc1ccc(C)cc1 (configuration not stated),inactive,
O=C(NCC1CCCO1)c1cnn2c(C(F)F)cc(C3CC3)nc12 (configuration not stated),active: 6.51 µM,
COc1ccc(C(=O)Nc2cccc(-c3cc4ccccc4oc3=O)c2)cc1[N+](=O)[O-],inactive,
CCN(CC)S(=O)(=O)c1cc(NC(=O)C(C)N2CCN(c3ccccn3)CC2)ccc1C (configuration not stated),inactive,
CCOC(=O)c1cccc(NC(=O)c2ccc3c(c2)OCO3)c1,"inconclusive: 29.1 µM [cytotoxic, single point]",
O=C(c1ccc(OCC2CCCO2)cc1)N1CCN(c2ccccc2)CC1 (configuration not stated),"inconclusive: 32.6 µM [cytotoxic, partial curve, poor fit]",
CN1CCC(NC(=O)NC2CCCCC2)CC1,"inconclusive: 29.1 µM [rising, single point]",
COc1cc(NC(=O)N[C@@H](Cc2ccccc2)C(=O)O)cc(OC)c1,"inconclusive: 29.1 µM [rising, single point]",
FC(F)(F)c1cccc(N2CCN(C3CC4CCC3C4)CC2)c1 (configuration not stated),"inconclusive: 20.6 µM [cytotoxic, single point]",
O=C(O)CCSc1nc2ccccc2n1-c1ccccc1,inactive,
Cc1ccc(S(=O)(=O)N2CCCN(C(=O)c3cc4ccccc4[nH]3)CC2)cc1,"inconclusive: 9.2 µM [cytotoxic, partial curve, poor fit]",
CCOC(=O)C1(Cc2ccccc2Cl)CCN(C(=O)c2cnccn2)CC1,"inconclusive: 29.1 µM [cytotoxic, single point]",
O=C(CC(C(=O)N1CCc2ccccc21)n1ccnc1)N1CCc2ccccc2C1 (configuration not stated),active: 8.2 µM,
COCc1ccc(CN2CCCC(CO)(Cc3cccc(Cl)c3)C2)o1 (configuration not stated),"inconclusive: 0.0116 µM [cytotoxic, full curve, poor fit]",
COC(=O)c1c(-c2cccnc2)csc1NC(=O)c1ccc2c(c1)OCO2,"inconclusive: 7.31 µM [cytotoxic, partial curve]",
N/C(=N\c1nc2c(c(=O)[nH]1)CCC2)Nc1cccc2ccccc12,"inconclusive: 6.51 µM [cytotoxic, partial curve]",
Nc1c2c(nc3sc4c(c13)CCCCC4)CCCCC2,active: 8.2 µM,
CCC1CCCCN1C(=S)NC(=O)c1cc(Br)ccc1Cl (configuration not stated),,inconclusive: -28.2%
CC(=O)N1CCN(c2ccc(NCc3ccc(C)cc3)cc2)CC1,"inconclusive: 16.4 µM [cytotoxic, partial curve]",
COc1cc(-c2cc(C(=O)Nc3ccc(N4CCOCC4)cc3)c3ccccc3n2)cc(OC)c1OC,inactive,

# From PubChem BioAssay AID1347076 (National Center for Advancing Translational Sciences (NCATS), 2019)
